Most values lie at the floor of the assay. Slopes are relative: functional sequences can read slightly below zero.
The substances below were run on Saccharomyces cerevisiae PS128 hsf1 delta, HSF1(1-493) fusion (assay: growth estimate (transactivation domain function in HSF1 fusion, heat-shock survival) (a.u. (slope of normalised read count over time)); higher = stronger growth at 37°C, i.e. more transactivation activity). Details: library: random library.
SRGSPLSPENSVKR was tested, and the growth estimate was under -0.25.
SYFELSVRGSDNTSNICYPG gave a growth estimate of under -0.25.
With RTSSTGFASPALDIWARQSS the growth estimate was under -0.25.
Work on PVLRPWCCDGRAKPWARSGH yielded a growth estimate of under -0.25.
In the case of LALCRCIRL, the growth estimate is reported as under -0.25.
Substance VRHDRDYCRNNSWWIETTQV has a growth estimate of under -0.25.
For INDVGGWAYL, the growth estimate was -0.198.
TVFGSRTAYGMRPSAVAASF was tested, and the growth estimate was -0.246.
LAPDRKHRIM gave a growth estimate of under -0.25.
Substance IAAELRDREALGCPGTNPLG has a growth estimate of under -0.25.
WNQAFARERSVKKRAVYELT gave a growth estimate of under -0.25.
HNR was tested, and the growth estimate was under -0.25.
GVYRYRSRGFYTSADDPCPK showed a growth estimate of under -0.25.
In the case of FISDGIR, the growth estimate is reported as under -0.25.
For NWRYRQLLLTLCKTRAPYTL, the growth estimate was under -0.25.
For LLYEGSAAIV, the growth estimate was under -0.25.
Work on ARGGILCH yielded a growth estimate of under -0.25.
VPYLHV showed a growth estimate of under -0.25.
For ASVMKNTGQVGEFDGSTPGL, the growth estimate was under -0.25.
For YPPTALPRLCA, the growth estimate was under -0.25.
QLGPGRPSAAALGQVANVLN showed a growth estimate of under -0.25.
In the case of IQRKPDVHREVRIPAVTSRA, the growth estimate is reported as under -0.25.
WKFVCPLWPKVKGAPPLDIP showed a growth estimate of under -0.25.
QGIRHVRRISGRVVAVTDRG showed a growth estimate of under -0.25.
GGSECGSH was tested, and the growth estimate was under -0.25.
RRTPSKEGRTCCECFPSAAW was tested, and the growth estimate was under -0.25.
With HHVIGESLEERQ the growth estimate was under -0.25.
SGCCPRGGMATFVGRVSTSS gave a growth estimate of under -0.25.
In the case of ARERGNRLYIQHISSCLVPA, the growth estimate is reported as under -0.25.
Substance LTTPISCESDGDI has a growth estimate of under -0.25.
KCYGICKARGIRSYKATTTE showed a growth estimate of under -0.25.
With APR the growth estimate was under -0.25.
LSLVMSDRLAERKAACRRPR showed a growth estimate of under -0.25.
IRYPPLT showed a growth estimate of 0.0142.
Work on HRVHPTTTIMGYHGLGNCTR yielded a growth estimate of under -0.25.
For NFEGMSLVVGGAAPLQ, the growth estimate was under -0.25.
For ITSVFVSIGHEWLSSSYGIC, the growth estimate was under -0.25.
KNDVLRTAVQSANSGCWLNY showed a growth estimate of under -0.25.
DRAAIWLYGRFSTDSARLV was tested, and the growth estimate was 0.183.
LTPPELARIGNTELRGSKHM gave a growth estimate of under -0.25.
For HRNACRGGNYSDCGRPGRLM, the growth estimate was under -0.25.
In the case of SPIG, the growth estimate is reported as under -0.25.
EGYKILLSAMRISPPIQL was tested, and the growth estimate was under -0.25.
LVAAIGL was tested, and the growth estimate was under -0.25.
Work on SSKSSLVHGRWRGIAVATST yielded a growth estimate of under -0.25.
In the case of CFGSRAAK, the growth estimate is reported as under -0.25.
In the case of RMKSPLVRAGELELSMPPQV, the growth estimate is reported as under -0.25.
Substance HMRINTHQAVDISCEVNCWV has a growth estimate of under -0.25.
Work on SRAPMQPVISIVCTLHDPGV yielded a growth estimate of under -0.25.
VCAGIFATDNRVKPKPYRGA was tested, and the growth estimate was under -0.25.
In the case of FRPGKFKVAVLCG, the growth estimate is reported as under -0.25.
For VMGGIVPAGCGLFDRGMQ, the growth estimate was under -0.25.
KVPLCQGSARVGRSRDLFAC was tested, and the growth estimate was under -0.25.
For GTDKSTGRVVSVDLRSIHSG, the growth estimate was under -0.25.
Work on PTVVKTVEMEARLYVIAYVS yielded a growth estimate of under -0.25.
TMLVGSLAALFQRSYCEIHA gave a growth estimate of under -0.25.
In the case of GRSFCTLDASLGWVQSGRAR, the growth estimate is reported as under -0.25.
With LDPLYRVNMEF the growth estimate was -0.241.
KGIGSMHVQSVGRISKEVGI showed a growth estimate of under -0.25.
TCVNRASVFSQRLCHPRSNH was tested, and the growth estimate was under -0.25.
MRVRRRTAL showed a growth estimate of under -0.25.
With PGLSKFWQVLSSGILEMIMG the growth estimate was under -0.25.
Substance LTYRCIRAKERVRELRAPPI has a growth estimate of under -0.25.
YAFFGC was tested, and the growth estimate was under -0.25.
For ARISGWRGSE, the growth estimate was -0.241.
EGELLESSFTSSLKLAVSRQ showed a growth estimate of -0.25.
Work on ESDCTSFL yielded a growth estimate of -0.246.
Work on VKILIFLHLGCRGLARGGQG yielded a growth estimate of under -0.25.
TVRDIK showed a growth estimate of under -0.25.
In the case of GWSV, the growth estimate is reported as under -0.25.
TASVLLDASIALVENRIFSY gave a growth estimate of under -0.25.
RPWKIECRGRAQFVRNLSSF showed a growth estimate of under -0.25.
Substance GCTLIGGSRLRANSSVRWIG has a growth estimate of under -0.25.
In the case of YMPFTAQVLVFRSDETGPVG, the growth estimate is reported as under -0.25.
FFNSISLTVERIEAWDSSDA was tested, and the growth estimate was under -0.25.
LGFAFAHVKRESRVYSGLES was tested, and the growth estimate was under -0.25.
With IHCGD the growth estimate was under -0.25.
Work on SDVTMPGIVHGHSRRTG yielded a growth estimate of under -0.25.
In the case of SGVLCVVSHFTRFGSQT, the growth estimate is reported as under -0.25.
With VGVNGERAMEGGFLP the growth estimate was under -0.25.
RKSHYLAGSACQRSRLWRWG gave a growth estimate of under -0.25.
With RLIAFGGSLGDES the growth estimate was under -0.25.
AYLVRLQFNSHFQDIKCLAP gave a growth estimate of under -0.25.
Substance LEWLHRDLGAACPGSSGIAV has a growth estimate of under -0.25.
In the case of KRPGRCGYIRLPLSFGHTEG, the growth estimate is reported as under -0.25.
Substance HRQNTRFYTCNDLCYYRVRG has a growth estimate of under -0.25.
Work on PCGQVPSSRCTSCSGKQRI yielded a growth estimate of under -0.25.
WESRRRYTRTDIGSALLEG gave a growth estimate of under -0.25.
Substance PRRREATANQLAPVAKVRLL has a growth estimate of under -0.25.
In the case of VHFS, the growth estimate is reported as under -0.25.
LGW gave a growth estimate of under -0.25.
Work on RASQLTSRDTETCVALDPHW yielded a growth estimate of under -0.25.
FCFEKQMD showed a growth estimate of under -0.25.
RCLV showed a growth estimate of under -0.25.
YANCRRNIQTP gave a growth estimate of under -0.25.
With AIGQQIHNWKIVEGFSLPGL the growth estimate was under -0.25.
For RQIAAASASRARSLYNRGSY, the growth estimate was under -0.25.
In the case of ADLDRCLARTNRWTSKVRLV, the growth estimate is reported as under -0.25.
Work on ARTAMDTLCLRQCVARPGLP yielded a growth estimate of under -0.25.
In the case of RSYVLRIGVSVA, the growth estimate is reported as under -0.25.
ARTVRRMR gave a growth estimate of under -0.25.
RFPLSHKLCAY gave a growth estimate of under -0.25.
GPSLLRWNE showed a growth estimate of under -0.25.
LRNLCCGCSTSVSGGSWRKA was tested, and the growth estimate was -0.245.
CYSK gave a growth estimate of under -0.25.
Work on GSWCMSRWYRVAGKSGVFAS yielded a growth estimate of -0.241.
CRRAPWAARLCGGIRSSG was tested, and the growth estimate was under -0.25.
PKMIKAV gave a growth estimate of -0.14.
With QEQA the growth estimate was under -0.25.
Substance LRGILNRVGICFLYR has a growth estimate of under -0.25.
Work on PEG yielded a growth estimate of under -0.25.
GLLTPSNTTGACGSLEVWE was tested, and the growth estimate was under -0.25.
GFEDSRRI gave a growth estimate of under -0.25.
Substance CRARVPCFRAILSATKNSPG has a growth estimate of under -0.25.
PLVLNLK gave a growth estimate of under -0.25.
With SSG the growth estimate was under -0.25.
In the case of WVYNSTTDPFV, the growth estimate is reported as under -0.25.
Substance KHLGMGNVMHKCENFHVKIG has a growth estimate of under -0.25.
With PGGRFSGQFEQFIHPELWRM the growth estimate was under -0.25.
For LLRGNPGNGETKVGAKVPGS, the growth estimate was under -0.25.
SGVRVSPGGT showed a growth estimate of under -0.25.
For RINRSDVCPAVSLIEVGDGL, the growth estimate was under -0.25.
Work on RFLHLLVDLEVDYWKRTFDN yielded a growth estimate of under -0.25.
For GYCYRSCSRIASLVSEALPW, the growth estimate was under -0.25.
Substance LAAKQSRISFASTRLVLGFG has a growth estimate of under -0.25.
With REKWGRS the growth estimate was under -0.25.
LCRCCR showed a growth estimate of under -0.25.
Substance VPIPEVCDPDLHKVHAAPCF has a growth estimate of under -0.25.
Work on GLKGWLKTVLTVGNF yielded a growth estimate of under -0.25.
For RSVRVKAIESAPVPP, the growth estimate was under -0.25.
Work on LSKGRAIENVAREKYQYLSG yielded a growth estimate of under -0.25.
LDVCMWLSNALRSFPRIKPL was tested, and the growth estimate was under -0.25.
In the case of LTIWSKRYVDISLRCGVLGC, the growth estimate is reported as under -0.25.
For RSPVTNGLFIGSLP, the growth estimate was under -0.25.
With QTVTS the growth estimate was under -0.25.
With ADARRGAASSSRKIKTDGTE the growth estimate was under -0.25.
ARDRHTADFSPSVLAQINWS showed a growth estimate of under -0.25.
Work on IGLGGI yielded a growth estimate of under -0.25.
Substance FYVKFENKPLVEIRLQCRSR has a growth estimate of under -0.25.
With LPSARLQPRNVLYR the growth estimate was under -0.25.
RRYWILRHNYRTD gave a growth estimate of under -0.25.
GHCGRTRCT was tested, and the growth estimate was under -0.25.
